PubChem BioAssay AID1347426 (Functional Genomics Laboratory (NCATS/FGL), 2020)
Among all 31,000 sequences or so, about 1,400 (4.5%) were called active.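 How the source made its calls: active means median seed-adjusted z-score above 1 or below -1; inactive means the rest.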 This is one part of the list.

Assay: Novel Modifiers of Survival Motor Neuron (SMN) Protein: Gene Identification via Genome-wide siRNA Screen;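 further: luminescence tracks full-length SMN protein made from the SMN2 reporter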
Conditions: HEK293T SMN2-luciferase reporter, siRNA knockdown, 72 h; actives lie on both sides
In short: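 Steps: spot 1 pmol siRNA, add Lipofectamine RNAiMax in serum-free DMEM, seed HEK293T SMN2–luciferase reporter cells; incubate 72 h at 37 °C; add ONE-Glo; normalize luminescence to control siRNA, log10, MAD. Candidates: |MAD| > 1.0.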

Row | Sequence | median seed-adjusted z-score
1 | CCUUCUCCGUGAUUGAGGATT against LGI4 | inactive: -0.239
2 | CCAUGGGAAUGUUGCUGAATT against HPX | inactive: -0.451
3 | CAUAGAUGAUGCAAAGGUATT against MINPP1 | inactive: -0.0107
4 | GUGGAGUAGGAAAACAUAATT against TCEAL1 | inactive: -0.263
5 | CUCCAUCUAUCUUCCCUGATT against PRELP | inactive: -0.0579
6 | CCUCUCUAGUAAUGCAAGATT against NAT12 | inactive: -0.0807
7 | GUACGGAUGCUGGACGGUATT against PCSK4 | inactive: 0.828
8 | CCACAAACAUUACCCUGGATT against TBXA2R | inactive: 0
9 | GCACAGUUUGUAAACUGGATT against ELA2 | inactive: 0.586
10 | CGGACACUAUUAUCACUAATT against DUSP6 | inactive: 0
11 | AGCUAGGCCUGGAUAUCGATT against KRT83 | active: 1.15
12 | UAUGAGUUGUUGUUGGGAATT against NSUN5 | inactive: 0.118
13 | GGAUUUCGUGUACCAGUUUTT against HLA-DQB1 | inactive: 0.454
14 | CGAGUGAUUAGGUACAUGATT against AP4B1 | inactive: 0.0278
15 | GCUUUACAUUGACAAUCCATT against CPVL | inactive: 0.334
16 | GAAACUUGUUAAAGACAUUTT against ZFAND1 | inactive: -0.272
17 | GCUCUGCUCUAGACGUGAATT against IL31RA | inactive: 0.36
18 | CCAUUUGAGGUGAACCGUATT against RFWD3 | inactive: 0.554
19 | CCAUCUUGGUAAUGCCCAUTT against HTR1D | inactive: -0.155
20 | CAGUGAAUGUGGAAGUUGUTT against ZNF501 | inactive: 0.19
21 | GAACCCACCAUACAAGUUUTT against SYT11 | inactive: 0.29
22 | UGAUCGCAGGAGUAUCUUUTT against TRPV1 | inactive: -0.12

21 entries from above in a different format.

| Row | Sequence | median seed-adjusted z-score |
| --- | --- | --- |
| 2 | CCAUGGGAAUGUUGCUGAATT against HPX | inactive: -0.451 |
| 3 | CAUAGAUGAUGCAAAGGUATT against MINPP1 | inactive: -0.0107 |
| 4 | GUGGAGUAGGAAAACAUAATT against TCEAL1 | inactive: -0.263 |
| 5 | CUCCAUCUAUCUUCCCUGATT against PRELP | inactive: -0.0579 |
| 6 | CCUCUCUAGUAAUGCAAGATT against NAT12 | inactive: -0.0807 |
| 7 | GUACGGAUGCUGGACGGUATT against PCSK4 | inactive: 0.828 |
| 8 | CCACAAACAUUACCCUGGATT against TBXA2R | inactive: 0 |
| 9 | GCACAGUUUGUAAACUGGATT against ELA2 | inactive: 0.586 |
| 10 | CGGACACUAUUAUCACUAATT against DUSP6 | inactive: 0 |
| 11 | AGCUAGGCCUGGAUAUCGATT against KRT83 | active: 1.15 |
| 12 | UAUGAGUUGUUGUUGGGAATT against NSUN5 | inactive: 0.118 |
| 13 | GGAUUUCGUGUACCAGUUUTT against HLA-DQB1 | inactive: 0.454 |
| 14 | CGAGUGAUUAGGUACAUGATT against AP4B1 | inactive: 0.0278 |
| 15 | GCUUUACAUUGACAAUCCATT against CPVL | inactive: 0.334 |
| 16 | GAAACUUGUUAAAGACAUUTT against ZFAND1 | inactive: -0.272 |
| 17 | GCUCUGCUCUAGACGUGAATT against IL31RA | inactive: 0.36 |
| 18 | CCAUUUGAGGUGAACCGUATT against RFWD3 | inactive: 0.554 |
| 19 | CCAUCUUGGUAAUGCCCAUTT against HTR1D | inactive: -0.155 |
| 20 | CAGUGAAUGUGGAAGUUGUTT against ZNF501 | inactive: 0.19 |
| 21 | GAACCCACCAUACAAGUUUTT against SYT11 | inactive: 0.29 |
| 22 | UGAUCGCAGGAGUAUCUUUTT against TRPV1 | inactive: -0.12 |

(continued)

Row | Sequence | median seed-adjusted z-score
23 | GAGUCACAAUUGAUCCGGATT against TOP2A | inactive: -0.187
24 | GAACAUUGUUCGACUGCUATT against GCKR | inactive: 0.454
25 | GAUUAUCAAUUACCCACAUTT against MMP26 | inactive: 0.0881
26 | GUCUGUGCUCAGUCAAAUATT against CCT6B | inactive: 0
27 | GAAGCUCCCUUUACAUCAUTT against HEPACAM | inactive: -0.063
28 | CAUCUACACCAGUAGCAUATT against HSD3B1 | inactive: -0.145
29 | CCAUAGGGCUGUCGGAUUATT against FRMD4B | inactive: -0.567
30 | GAGGAUCAGUUGCUAUGAATT against PFKFB3 | inactive: -0.133
31 | GGAUCAGUAUGGGCAAAGATT against CALB1 | inactive: 0.191
32 | AGCCUCUCCUAUUCCCGAATT against PSMD3 | inactive: 0.47
33 | GGCCGAACAUUACAGAACATT against PYGL | inactive: 0.166
34 | CAGUCAAAAUUAACCUGUUTT against RPE65 | inactive: -0.655
35 | GACUGAGAGUUGGAUCAAATT against TRPM8 | inactive: 0.405
36 | CUCUCGACGUGUUCAUUUATT against RAB20 | inactive: -0.334
37 | CGAUUAAGCUCUACCUAAATT against CACNA2D3 | inactive: 0.198
38 | CAUGUGCAGUACAUCCAUATT against TIMP3 | active: -1.05
39 | GGACUUCUUUGAAAAACCUTT against CSNK1G1 | inactive: -0.255
40 | ACGGGCACCUGGAAAUUCATT against CRX | inactive: -0.156
41 | CAGGUAGCAUGGACCUUAATT against RPP25 | inactive: 0
42 | GUAUAUUAUGUGAGGCAAATT against LRRC3B | inactive: 0
43 | CUAUGUUCAUCGACUGGUUTT against BRAP | inactive: 0.267
44 | CGGAGAAUCUCUUGUCUUATT against NEUROD2 | inactive: -0.103

Row | Sequence | median seed-adjusted z-score
45 | GGAUGAAGAAGUUCGGCAATT against GLRX3 | inactive: 0.0784
46 | ACAAGUUCGUGUGCAAAGATT against LHX5 | inactive: -0.414
47 | GUCUACCAAUGAAAAGAGATT against TFEC | inactive: -0.0734
48 | CCCUAGAGUAUUACACGGATT against DGKD | inactive: 0.35
49 | CCGUUGCUAUGAACAAGUUTT against B4GALT3 | inactive: -0.138
50 | GAUCUGAACACGUACCUCATT against PICK1 | inactive: -0.136
51 | GUCACCUUCUUUAACCUCATT against HRH3 | inactive: 0.276
52 | CAAAGACUCUGGAAUGAAUTT against PRICKLE2 | active: -1.12
53 | CAGUUACUCCAAUUCGUUUTT against ZNF266 | inactive: 0.426
54 | CGAUCGACUCGGUGACUUUTT against COL7A1 | active: 1.08
55 | GGGUACCGAGGAUCGCUUUTT against LAMA5 | inactive: 0.229
56 | CAUCAUCCAUGGUAGCUUUTT against DUOX1 | active: -1.09
57 | GGAAAGUCCUGUUUGAUCATT against RHBDL3 | inactive: 0.56
58 | GAGUGGGACCUGAAGCCUATT against ALDH4A1 | inactive: 0.0362
59 | GAAGUGGAAUGCUGAAGAATT against CHRND | inactive: -0.112
60 | GGUGCGCAACUCUACAUGATT against PSMA3 | inactive: -0.81
61 | AGAGGAUUCUAGAAGCUGATT against RXRG | inactive: 0.16
62 | CCCUGAAUCUUGUUACAGATT against PRICKLE1 | inactive: -0.486
63 | GAAUCAUCCCAACAUAGUUTT against MARK2 | inactive: 0.664
64 | GGUAGAAUCUAGGUAUGCATT against RAD51 | inactive: 0.594
65 | GUAUCUAAGAGAUAUGGAATT against ORC5L | inactive: -0.126
66 | GGUACUCGGUGGAAACCAATT against CNKSR3 | inactive: 0

Row | Sequence | median seed-adjusted z-score
67 | GCUGUGCAACCAGAACAAATT against SCNN1A | inactive: -0.137
68 | GGUCGUCAAUGCAGAUUAUTT against MEGF10 | inactive: 0.622
69 | UCAGUUUGCUGAGAACGAATT against TCEB1 | active: 1.08
70 | GGAUGGAAAAUGAACAGCATT against ASPHD2 | inactive: -0.719
71 | CAGGUUAUCGUGUGAAGGATT against TNFRSF14 | inactive: 0
72 | CCAACGAAGCCGUCUUUUUTT against NONO | inactive: 0.555
73 | CGUAAUCUGAUGAUCGAUATT against CADM1 | inactive: 0.419
74 | GGAAGGAAGAGGAACCGGATT against ZNF688 | inactive: -0.475
75 | CCAUUGCUACCAAGACUUUTT against B4GALNT2 | inactive: -0.174
76 | GGACAUUUCAUGAGUCAUUTT against 8-Mar | inactive: -0.106
77 | GUAUGGUCGUGUGAGGAAATT against KHK | inactive: 0
78 | AGGGAUGGAUGCAAACUUUTT against LILRB1 | inactive: 0.539
79 | GCAUGGUGUUCUUCCUAAUTT against SLC38A3 | inactive: -0.177
80 | GGCUCAUGAUGGACAUGAUTT against CANX | inactive: 0.471
81 | GGCAAAUAGUGAGUCAGAATT against HBP1 | inactive: -0.117
82 | GGUCCUUCUAUACCGCUUATT against QSOX1 | inactive: -0.154
83 | GGAGAUGUAAAGUCAAAGATT against COPB1 | inactive: -0.839
84 | GGCUCAAGACAGUCCUGAATT against TMEM8 | inactive: -0.551
85 | CCGUAGAUGCAAUAUAUCATT against OSBPL9 | inactive: -0.958
86 | CCAAUAUUGUUAAGAAUGATT against PSMAL | inactive: 0.525
87 | GGACAAUUCGGGAAAUUGUTT against VAX2 | inactive: -0.71
88 | GGAUGAGACUUUGAGACUATT against PRDX1 | inactive: 0.288

Row | Sequence | median seed-adjusted z-score
89 | GUGCUUCUGGGUGAAGUCATT against SLC25A41 | inactive: 0.0703
90 | GGAUCUAAUGAACGGAACATT against SIRPA | inactive: -0.153
91 | CGGAGAAGAUGUUCGCCGATT against SIL1 | inactive: 0.0292
92 | AGAUCUGCGUUGAAAUGGATT against ARHGAP4 | inactive: 0.784
93 | CGUUCUGUCUGGUGAUGUUTT against OTOG | inactive: -0.344
94 | GGGAAGCUGUUCGACUAUUTT against CYC1 | inactive: -0.47
95 | CAAACCUAACUAUACAUAATT against ZNF107 | inactive: 0.0761
96 | CCAGGCAAAUGUAAGAAUATT against PDLIM5 | inactive: 0.439
97 | CCAUCUAGAGUAUCACGCATT against CYGB | inactive: -0.34
98 | CGUUCAGACAUACCGAAAATT against ELOVL2 | inactive: -0.456
99 | GCAACAUGGGAAUUAUGAATT against SP1 | inactive: 0.544
100 | CCCUCAAGCUGUUAACAGATT against ACMSD | inactive: 0
101 | CAGUGGAUGUUAUUCCUCATT against RNF128 | inactive: -0.377
102 | UCUUCGAGCAAGAAACUAATT against CD9 | active: -1.02
103 | CACCUCUGGCUAACCCAUATT against ASGR2 | inactive: 0.0772
104 | GGAUCAAGGCUAUGUGGAUTT against CYB5R1 | inactive: 0
105 | GCCUUAUUUCUAUACUGGATT against TRIM60 | inactive: -0.201
106 | GCAUGUCAUCGAUGGAGAATT against PA2G4 | inactive: -0.803
107 | AGACAUGUCAUUCAAGUUUTT against TPO | inactive: 0.894
108 | GGCUAUGUGCGGGAGUAUATT against PI4KA | inactive: 0
